PubChem BioAssay AID493246 – Drosophila RNAi Screening Center, 2011

Screen: 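Identify essential fly genes by loss of cell viability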 (primary screen)
Cells: Drosophila Kc and S2R+ cells
Reagent: long dsRNA against Drosophila genes
Detection: 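Raw, unnormalised count of remaining cells in each well; per-plate z-scores of cell number underlie the calls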
Reading the numbers: Kc cell number and S2R+ cell number: higher = more cells remaining
Rule for the call: 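Active when the per-plate z-score of cell number is 3 or more in the direction of fewer cells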
In all, the deposit lists about 21,000 reagents; this is a random part of those that have a named target and a result. In the full data, 429 (2%) were called active. 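Values are raw and not normalised between plates; calls rest on per-plate z-scores that were not deposited.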 A plus sign joins genes that one reagent is predicted to hit. Reagent sequences are not shown. Not stated in the record: the amount of reagent, the time to read-out.

| gene | dsRNA | Kc cell number, rep 1 | Kc cell number, rep 2 | S2R+ cell number, rep 1 | S2R+ cell number, rep 2 | outcome |
| --- | --- | --- | --- | --- | --- | --- |
| CG14441 | DRSC17934 | 1.36e6 | 1.41e6 | 6.81e5 | 7.68e5 | inactive |
| CG34171 | DRSC01637 | 1.58e6 | 1.57e6 | 1.00e6 | 1.21e6 | inactive |
| Alp4 | DRSC14116 | 1.45e6 | 1.47e6 | 1.07e6 | 1.11e6 | inactive |
| Nup160 + RfC38 | DRSC01997 | 1.26e6 | 1.33e6 | 1.09e6 | 1.13e6 | inactive |
| Ssb-c31a | DRSC03443 | 1.74e6 | 1.76e6 | 1.17e6 | 1.35e6 | inactive |
| Spn77Bb + Spn77Bc | DRSC10689 | 1.54e6 | 1.64e6 | 1.26e6 | 1.40e6 | inactive |
| Spn77Bb + Spn77Bc | DRSC11793 | 1.46e6 | 1.49e6 | 1.29e6 | 1.43e6 | inactive |
| CG3823 | DRSC18325 | 1.52e6 | 1.43e6 | 1.04e6 | 1.20e6 | inactive |
| Cdk5 | DRSC07359 | 1.30e6 | 1.46e6 | 1.16e6 | 1.09e6 | inactive |
| AOX3 | DRSC15955 | 1.43e6 | 1.71e6 | 1.41e6 | 1.64e6 | inactive |
| Idh | DRSC10779 | 1.41e6 | 1.55e6 | 1.21e6 | 1.00e6 | inactive |
| CG6839 | DRSC10723 | 1.60e6 | 1.62e6 | 1.41e6 | 1.51e6 | inactive |
| Nup205 | DRSC19432 | 1.23e6 | 1.33e6 | 9.73e5 | 1.04e6 | inactive |
| CG3600 (retired record) | DRSC18599 | 1.48e6 | 1.49e6 | 1.00e6 | 1.05e6 | inactive |

Copied from the listing (3 entries):
| gene | dsRNA | Kc cell number, rep 1 | Kc cell number, rep 2 | S2R+ cell number, rep 1 | S2R+ cell number, rep 2 | outcome |
| --- | --- | --- | --- | --- | --- | --- |
| Cdk5 | DRSC07359 | 1.30e6 | 1.46e6 | 1.16e6 | 1.09e6 | inactive |
| AOX3 | DRSC15955 | 1.43e6 | 1.71e6 | 1.41e6 | 1.64e6 | inactive |
| Idh | DRSC10779 | 1.41e6 | 1.55e6 | 1.21e6 | 1.00e6 | inactive |

Further reagents follow.
| gene | dsRNA | Kc cell number, rep 1 | Kc cell number, rep 2 | S2R+ cell number, rep 1 | S2R+ cell number, rep 2 | outcome |
| --- | --- | --- | --- | --- | --- | --- |
| CG9330 | DRSC11066 | 1.40e6 | 1.46e6 | 1.25e6 | 1.31e6 | inactive |
| Nepl9 | DRSC02255 | 1.57e6 | 1.55e6 | 1.28e6 | 1.39e6 | inactive |
| CG6282 | DRSC10616 | 1.44e6 | 1.54e6 | 1.25e6 | 1.12e6 | inactive |
| Cog4 | DRSC03057 | 1.24e6 | 1.46e6 | 1.17e6 | 1.29e6 | inactive |
| CG31510 | DRSC14182 | 1.42e6 | 1.49e6 | 9.01e5 | 1.01e6 | inactive |
| CG33521 | DRSC17179 | 1.28e6 | 1.67e6 | 1.08e6 | 1.20e6 | inactive |
| CG33521 | DRSC17211 | 1.51e6 | 1.52e6 | 1.06e6 | 1.22e6 | inactive |
| CG5302 (retired record) | DRSC15764 | 1.43e6 | 1.44e6 | 1.05e6 | 1.20e6 | inactive |
| CG5302 (retired record) | DRSC15765 | 1.44e6 | 1.42e6 | 1.11e6 | 1.21e6 | inactive |
| Irbp18 | DRSC10612 | 1.39e6 | 1.48e6 | 1.32e6 | 1.46e6 | inactive |
